From patent publication US20250074896A1, “ARYLTETRAHYDROPYRIDAZINE DERIVATIVE OR SALT THEREOF AND INSECTICIDAL AGENT CONTAINING THE COMPOUND AND METHOD FOR USING SAME” (NIHON NOHYAKU CO., LTD., priority 2021, published 2025)
Some of these results come from one statement about several compounds together.

Assays:
Format in all cases: in vivo
[1] = tested on: Diamondback moth (Plutella xylostella); assay: Insecticidal test on diamondback moth (dip treatment of Chinese cabbage seedlings with laid eggs); settings: dip about 30 seconds, 6 days after treatment, 25° C.
[2] = tested on: Small Brown Planthopper (Laodelphax striatellus); assay: Insecticidal test on small brown planthopper (dipped rice seedlings, 3rd-instar larvae); settings: rice seedlings dipped 30 seconds, 8 days after inoculation
[3] = tested on: Western Flower Thrips (Frankliniella occidentalis); assay: Insecticidal test on western flower thrips (kidney bean leaf pieces, hatched larvae); settings: 4 days after the treatment

Cc1cccc(NC(=O)C2=C(O)CN(c3ccc(Cl)nc3)NC2=O)n1 [1-378]
A (the mortality rate is 100%): insecticidal efficacy (corrected mortality rate) against diamondback moth ([1]; 50 ppm) | insecticidal efficacy (corrected mortality rate) against diamondback moth ([1]; 500 ppm) | insecticidal efficacy (corrected mortality rate) against small brown planthopper ([2]; 50 ppm) | insecticidal efficacy (corrected mortality rate) against small brown planthopper ([2]; 500 ppm) | insecticidal efficacy (corrected mortality rate) against western flower thrips ([3]; 50 ppm) | insecticidal efficacy (corrected mortality rate) against western flower thrips ([3]; 500 ppm)

COc1ccc(NC(=O)C2=C(O)CN(c3ccc(Cl)nc3)NC2=O)cn1 [1-61]
A (the mortality rate is 100%): insecticidal efficacy (corrected mortality rate) against diamondback moth ([1]; 500 ppm) | insecticidal efficacy (corrected mortality rate) against small brown planthopper ([2]; 500 ppm) | insecticidal efficacy (corrected mortality rate) against western flower thrips ([3]; 500 ppm)

COCCOC(=O)N1C(=O)C(C(=O)Nc2ccc(F)cc2)=C(O)CN1c1ccc(Cl)nc1 [3-323]
A (the mortality rate is 100%): insecticidal efficacy (corrected mortality rate) against diamondback moth ([1]; 50 ppm) | insecticidal efficacy (corrected mortality rate) against diamondback moth ([1]; 500 ppm) | insecticidal efficacy (corrected mortality rate) against small brown planthopper ([2]; 50 ppm) | insecticidal efficacy (corrected mortality rate) against small brown planthopper ([2]; 500 ppm) | insecticidal efficacy (corrected mortality rate) against western flower thrips ([3]; 50 ppm) | insecticidal efficacy (corrected mortality rate) against western flower thrips ([3]; 500 ppm)

COC(=O)N1C(=O)C(C(=O)Nc2cccc(F)c2)=C(O)CN1c1cnc(C#N)c(C)c1 [3-495]
A (the mortality rate is 100%): insecticidal efficacy (corrected mortality rate) against diamondback moth ([1]; 50 ppm) | insecticidal efficacy (corrected mortality rate) against diamondback moth ([1]; 500 ppm) | insecticidal efficacy (corrected mortality rate) against small brown planthopper ([2]; 50 ppm) | insecticidal efficacy (corrected mortality rate) against small brown planthopper ([2]; 500 ppm) | insecticidal efficacy (corrected mortality rate) against western flower thrips ([3]; 50 ppm) | insecticidal efficacy (corrected mortality rate) against western flower thrips ([3]; 500 ppm)

Cc1cccc(NC(=O)C2=C(O)CN(c3ccc(C#N)cc3)NC2=O)n1 [1-375]
A (the mortality rate is 100%): insecticidal efficacy (corrected mortality rate) against diamondback moth ([1]; 50 ppm) | insecticidal efficacy (corrected mortality rate) against diamondback moth ([1]; 500 ppm) | insecticidal efficacy (corrected mortality rate) against small brown planthopper ([2]; 50 ppm) | insecticidal efficacy (corrected mortality rate) against small brown planthopper ([2]; 500 ppm) | insecticidal efficacy (corrected mortality rate) against western flower thrips ([3]; 50 ppm) | insecticidal efficacy (corrected mortality rate) against western flower thrips ([3]; 500 ppm)

COC(=O)N1C(=O)C(C(=O)Nc2ccc(F)cc2)=C(SCc2ccccc2)CN1c1ccc(C#N)nc1 [5-19]
A (the mortality rate is 100%): insecticidal efficacy (corrected mortality rate) against diamondback moth ([1]; 500 ppm) | insecticidal efficacy (corrected mortality rate) against small brown planthopper ([2]; 50 ppm) | insecticidal efficacy (corrected mortality rate) against small brown planthopper ([2]; 500 ppm) | insecticidal efficacy (corrected mortality rate) against western flower thrips ([3]; 50 ppm) | insecticidal efficacy (corrected mortality rate) against western flower thrips ([3]; 500 ppm)

N#Cc1ccc(N2CC(O)=C(C(=O)Nc3ccc(Cl)cc3F)C(=O)N2)cn1 [1-208]
A (the mortality rate is 100%): insecticidal efficacy (corrected mortality rate) against diamondback moth ([1]; 50 ppm) | insecticidal efficacy (corrected mortality rate) against diamondback moth ([1]; 500 ppm) | insecticidal efficacy (corrected mortality rate) against small brown planthopper ([2]; 50 ppm) | insecticidal efficacy (corrected mortality rate) against small brown planthopper ([2]; 500 ppm) | insecticidal efficacy (corrected mortality rate) against western flower thrips ([3]; 50 ppm) | insecticidal efficacy (corrected mortality rate) against western flower thrips ([3]; 500 ppm)

COC(=O)N1C(=O)C(C(=O)Nc2ccc(Cl)c(OC)c2)=C(O)CN1c1cnc(C#N)c(Cl)c1 [3-474]
A (the mortality rate is 100%): insecticidal efficacy (corrected mortality rate) against diamondback moth ([1]; 500 ppm) | insecticidal efficacy (corrected mortality rate) against small brown planthopper ([2]; 50 ppm) | insecticidal efficacy (corrected mortality rate) against small brown planthopper ([2]; 500 ppm) | insecticidal efficacy (corrected mortality rate) against western flower thrips ([3]; 50 ppm) | insecticidal efficacy (corrected mortality rate) against western flower thrips ([3]; 500 ppm)

N#Cc1ccccc1NC(=O)C1=C(O)CN(c2cnc(C#N)c(Cl)c2)NC1=O [1-218]
A (the mortality rate is 100%): insecticidal efficacy (corrected mortality rate) against diamondback moth ([1]; 500 ppm) | insecticidal efficacy (corrected mortality rate) against small brown planthopper ([2]; 50 ppm) | insecticidal efficacy (corrected mortality rate) against small brown planthopper ([2]; 500 ppm) | insecticidal efficacy (corrected mortality rate) against western flower thrips ([3]; 50 ppm) | insecticidal efficacy (corrected mortality rate) against western flower thrips ([3]; 500 ppm)

Cc1ccc(NC(=O)C2=C(O)CN(c3ccc(Br)nc3)NC2=O)nc1 [1-306]
A (the mortality rate is 100%): insecticidal efficacy (corrected mortality rate) against diamondback moth ([1]; 500 ppm) | insecticidal efficacy (corrected mortality rate) against small brown planthopper ([2]; 500 ppm) | insecticidal efficacy (corrected mortality rate) against western flower thrips ([3]; 50 ppm) | insecticidal efficacy (corrected mortality rate) against western flower thrips ([3]; 500 ppm)

COCCOC(=O)N1C(=O)C(C(=O)Nc2ccc(F)cc2)=C(O)CN1c1cnc(C#N)c(C)c1 [3-336]
A (the mortality rate is 100%): insecticidal efficacy (corrected mortality rate) against diamondback moth ([1]; 50 ppm) | insecticidal efficacy (corrected mortality rate) against diamondback moth ([1]; 500 ppm) | insecticidal efficacy (corrected mortality rate) against small brown planthopper ([2]; 50 ppm) | insecticidal efficacy (corrected mortality rate) against small brown planthopper ([2]; 500 ppm) | insecticidal efficacy (corrected mortality rate) against western flower thrips ([3]; 50 ppm) | insecticidal efficacy (corrected mortality rate) against western flower thrips ([3]; 500 ppm)

COC(=O)N1C(=O)C(C(=O)Nc2ccc(F)c(F)c2)=C(O)CN1c1ccc(C#N)nc1 [3-190]
A (the mortality rate is 100%): insecticidal efficacy (corrected mortality rate) against diamondback moth ([1]; 50 ppm) | insecticidal efficacy (corrected mortality rate) against diamondback moth ([1]; 500 ppm) | insecticidal efficacy (corrected mortality rate) against small brown planthopper ([2]; 50 ppm) | insecticidal efficacy (corrected mortality rate) against small brown planthopper ([2]; 500 ppm) | insecticidal efficacy (corrected mortality rate) against western flower thrips ([3]; 50 ppm) | insecticidal efficacy (corrected mortality rate) against western flower thrips ([3]; 500 ppm)

N#Cc1ccc(N2CC(O)=C(C(=O)Nc3ccc(Cl)cc3C#N)C(=O)N2)cc1 [1-246]
A (the mortality rate is 100%): insecticidal efficacy (corrected mortality rate) against diamondback moth ([1]; 50 ppm) | insecticidal efficacy (corrected mortality rate) against diamondback moth ([1]; 500 ppm) | insecticidal efficacy (corrected mortality rate) against small brown planthopper ([2]; 50 ppm) | insecticidal efficacy (corrected mortality rate) against small brown planthopper ([2]; 500 ppm) | insecticidal efficacy (corrected mortality rate) against western flower thrips ([3]; 50 ppm) | insecticidal efficacy (corrected mortality rate) against western flower thrips ([3]; 500 ppm)

COC(=O)N1C(=O)C(C(=O)Nc2ccc(F)cc2)=C(O)CN1c1ccc(C#N)nn1 [3-205]
A (the mortality rate is 100%): insecticidal efficacy (corrected mortality rate) against diamondback moth ([1]; 50 ppm) | insecticidal efficacy (corrected mortality rate) against diamondback moth ([1]; 500 ppm) | insecticidal efficacy (corrected mortality rate) against small brown planthopper ([2]; 50 ppm) | insecticidal efficacy (corrected mortality rate) against small brown planthopper ([2]; 500 ppm) | insecticidal efficacy (corrected mortality rate) against western flower thrips ([3]; 50 ppm) | insecticidal efficacy (corrected mortality rate) against western flower thrips ([3]; 500 ppm)
